According to US20250283871A1, “COMPOSITIONS AND METHODS FOR MODULATING THE INTERACTION BETWEEN SS18-SSX FUSION ONCOPROTEIN AND NUCLEOSOMES” (Dana-Farber Cancer Institute, Inc., priority 2020, published 2025):

B1: PKP2 (protein, UniProt Q99959 1-881, looked up)
Plakophilin-2: MAAPGAPAEYGYIRTVLGQQILGQLDSSSLALPSEAKLKLAGSSGRGGQTVKSLRIQEQVQQTLARKGRSSVGNGNLHRTSSVPEYVYNLHLVENDFVGGRSPVPKTYDMLKAGTTATYEGRWGRGTAQYSSQKSVEERSLRHPLRRLEISPDSSPERAHYTHSDYQYSQRSQAGHTLHHQESRRAALLVPPRYARSEIVGVSRAGTTSRQRHFDTYHRQYQHGSVSDTVFDSIPANPALLTYPRPGTSRSMGNLLEKENYLTAGLTVGQVRPLVPLQPVTQNRASRSSWHQSSFHSTRTLREAGPSVAVDSSGRRAHLTVGQAAAGGSGNLLTERSTFTDSQLGNADMEMTLERAVSMLEADHMLPSRISAAATFIQHECFQKSEARKRVNQLRGILKLLQLLKVQNEDVQRAVCGALRNLVFEDNDNKLEVAELNGVPRLLQVLKQTRDLETKKQITDHTVNLRSRNGWPGAVAHACNPSTLGGQGGRITRSGVRDQPDQHGLLWNLSSNDKLKNLMITEALLTLTENIIIPFSGWPEGDYPKANGLLDFDIFYNVTGCLRNMSSAGADGRKAMRRCDGLIDSLVHYVRGTIADYQPDDKATENCVCILHNLSYQLEAELPEKYSQNIYIQNRNIQTDNNKSIGCFGSRSRKVKEQYQDVPMPEEKSNPKGVEWLWHSIVIRMYLSLIAKSVRNYTQEASLGALQNLTAGSGPMPTSVAQTVVQKESGLQHTRKMLHVGDPSVKKTAISLLRNLSRNLSLQNEIAKETLPDLVSIIPDTVPSTDLLIETTASACYTLNNIIQNSYQNARDLLNTGGIQKIMAISAGDAYASNKASKAASVLLYSLWAHTELHHAYKKAQFKKTDFVNSRTAKAYHSLKD
B2: TMTC3 (protein, UniProt Q6ZXV5 1-915, looked up)
Protein …: MANINLKEITLIVGVVTACYWNSLFCGFVFDDVSAILDNKDLHPSTPLKTLFQNDFWGTPMSEERSHKSYRPLTVLTFRLNYLLSELKPMSYHLLNMIFHAVVSVIFLKVCKLFLDNKSSVIASLLFAVHPIHTEAVTGVVGRAELLSSIFFLAAFLSYTRSKGPDNSIIWTPIALTVFLVAVATLCKEQGITVVGICCVYEVFIAQGYTLPLLCTTAGQFLRGKGSIPFSMLQTLVKLIVLMFSTLLLVVIRVQVIQSQLPVFTRFDNPAAVSPTPTRQLTFNYLLPVNAWLLLNPSELCCDWTMGTIPLIESLLDIRNLATFTFFCFLGMLGVFSIRYSGDSSKTVLMALCLMALPFIPASNLFFPVGFVVAERVLYVPSMGFCILVAHGWQKISTKSVFKKLSWICLSMVILTHSLKTFHRNWDWESEYTLFMSALKVNKNNAKLWNNVGHALENEKNFERALKYFLQATHVQPDDIGAHMNVGRTYKNLNRTKEAEESYMMAKSLMPQIIPGKKYAARIAPNHLNVYINLANLIRANESRLEEADQLYRQAISMRPDFKQAYISRGELLLKMNKPLKAKEAYLKALELDRNNADLWYNLAIVHIELKEPNEALKKNFNRALELNPKHKLALFNSAIVMQESGEVKLRPEARKRLLSYINEEPLDANGYFNLGMLAMDDKKDNEAEIWMKKAIKLQADFRSALFNLALLYSQTAKELKALPILEELLRYYPDHIKGLILKGDILMNQKKDILGAKKCFERILEMDPSNVQGKHNLCVVYFEEKDLLKAERCLLETLALAPHEEYIQRHLNIVRDKISSSSFIEPIFPTSKISSVEGKKIPTESVKEIRGESRQTQIVKTSDNKSQSKSNKQLGKNGDEETPHKTTKDIKEIEKKRVAALKRLEEIERILNGE
B3: SAMM50 (protein, UniProt Q9Y512 1-469, looked up)
Sorting and assembly …: MGTVHARSLEPLPSSGPDFGGLGEEAEFVEVEPEAKQEILENKDVVVQHVHFDGLGRTKDDIIICEIGDVFKAKNLIEVMRKSHEAREKLLRLGIFRQVDVLIDTCQGDDALPNGLDVTFEVTELRRLTGSYNTMVGNNEGSMVLGLKLPNLLGRAEKVTFQFSYGTKETSYGLSFFKPRPGNFERNFSVNLYKVTGQFPWSSLRETDRGMSAEYSFPIWKTSHTVKWEGVWRELGCLSRTASFAVRKESGHSLKSSLSHAMVIDSRNSSILPRRGALLKVNQELAGYTGGDVSFIKEDFELQLNKQLIFDSVFSASFWGGMLVPIGDKPSSIADRFYLGGPTSIRGFSMHSIGPQSEGDYLGGEAYWAGGLHLYTPLPFRPGQGGFGELFRTHFFLNAGNLCNLNYGEGPKAHIRKLAECIRWSYGAGIVLRLGNIARLELNYCVPMGVQTGDRICDGVQFGAGIRFL
B4: TIMMDC1 (protein, UniProt Q9NPL8 1-285, looked up)
Complex I assembly factor …: MEVPPPAPRSFLCRALCLFPRVFAAEAVTADSEVLEERQKRLPYVPEPYYPESGWDRLRELFGKDEQQRISKDLANICKTAATAGIIGWVYGGIPAFIHAKQQYIEQSQAEIYHNRFDAVQSAHRAATRGFIRYGWRWGWRTAVFVTIFNTVNTSLNVYRNKDALSHFVIAGAVTGSLFRINVGLRGLVAGGIIGALLGTPVGGLLMAFQKYSGETVQERKQKDRKALHELKLEEWKGRLQVTEHLPEKIESSLQEDEPENDAKKIEALLNLPRNPSVIDKQDKD
B5: HLTF (protein, UniProt Q14527 1-1009, looked up)
Helicase-like transcription …: MSWMFKRDPVWKYLQTVQYGVHGNFPRLSYPTFFPRFEFQDVIPPDDFLTSDEEVDSVLFGSLRGHVVGLRYYTGVVNNNEMVALQRDPNNPYDKNAIKVNNVNGNQVGHLKKELAGALAYIMDNKLAQIEGVVPFGANNAFTMPLHMTFWGKEENRKAVSDQLKKHGFKLGPAPKTLGFNLESGWGSGRAGPSYSMPVHAAVQMTTEQLKTEFDKLFEDLKEDDKTHEMEPAEAIETPLLPHQKQALAWMVSRENSKELPPFWEQRNDLYYNTITNFSEKDRPENVHGGILADDMGLGKTLTAIAVILTNFHDGRPLPIERVKKNLLKKEYNVNDDSMKLGGNNTSEKADGLSKDASRCSEQPSISDIKEKSKFRMSELSSSRPKRRKTAVQYIESSDSEEIETSELPQKMKGKLKNVQSETKGRAKAGSSKVIEDVAFACALTSSVPTTKKKMLKKGACAVEGSKKTDVEERPRTTLIICPLSVLSNWIDQFGQHIKSDVHLNFYVYYGPDRIREPALLSKQDIVLTTYNILTHDYGTKGDSPLHSIRWLRVILDEGHAIRNPNAQQTKAVLDLESERRWVLTGTPIQNSLKDLWSLLSFLKLKPFIDREWWHRTIQRPVTMGDEGGLRRLQSLIKNITLRRTKTSKIKGKPVLELPERKVFIQHITLSDEERKIYQSVKNEGRATIGRYFNEGTVLAHYADVLGLLLRLRQICCHTYLLTNAVSSNGPSGNDTPEELRKKLIRKMKLILSSGSDEECAICLDSLTVPVITHCAHVFCKPCICQVIQNEQPHAKCPLCRNDIHEDNLLECPPEELARDSEKKSDMEWTSSSKINALMHALTDLRKKNPNIKSLVVSQFTTFLSLIEIPLKASGFVFTRLDGSMAQKKRVESIQCFQNTEAGSPTIMLLSLKAGGVGLNLSAASRVFLMDPAWNPAAEDQCFDRCHRLGQKQEVIITKFIVKDSVEENMLKIQNKKRELAAGAFGTKKPNADEMKQAKINEIRTLIDL
B6: MED16 (protein, UniProt Q9Y2X0 1-877, looked up)
Mediator of RNA polymerase II …: MCDLRRPAAGGMMDLAYVCEWEKWSKSTHCPSVPLACAWSCRNLIAFTMDLRSDDQDLTRMIHILDTEHPWDLHSIPSEHHEAITCLEWDQSGSRLLSADADGQIKCWSMADHLANSWESSVGSLVEGDPIVALSWLHNGVKLALHVEKSGASSFGEKFSRVKFSPSLTLFGGKPMEGWIAVTVSGLVTVSLLKPSGQVLTSTESLCRLRGRVALADIAFTGGGNIVVATADGSSASPVQFYKVCVSVVSEKCRIDTEILPSLFMRCTTDLNRKDKFPAITHLKFLARDMSEQVLLCASSQTSSIVECWSLRKEGLPVNNIFQQISPVVGDKQPTILKWRILSATNDLDRVSAVALPKLPISLTNTDLKVASDTQFYPGLGLALAFHDGSVHIVHRLSLQTMAVFYSSAAPRPVDEPAMKRPRTAGPAVHLKAMQLSWTSLALVGIDSHGKLSVLRLSPSMGHPLEVGLALRHLLFLLEYCMVTGYDWWDILLHVQPSMVQSLVEKLHEEYTRQTAALQQVLSTRILAMKASLCKLSPCTVTRVCDYHTKLFLIAISSTLKSLLRPHFLNTPDKSPGDRLTEICTKITDVDIDKVMINLKTEEFVLDMNTLQALQQLLQWVGDFVLYLLASLPNQGSLLRPGHSFLRDGTSLGMLRELMVVIRIWGLLKPSCLPVYTATSDTQDSMSLLFRLLTKLWICCRDEGPASEPDEALVDECCLLPSQLLIPSLDWLPASDGLVSRLQPKQPLRLQFGRAPTLPGSAATLQLDGLARAPGQPKIDHLRRLHLGACPTEECKACTRCGCVTMLKSPNRTTAVKQWEQRWIKNCLAVEGRGPDACVTSRASEEAPAFVQLGPQSTHHSPRTPRSLDHLHPEDRP
B7: TM7SF2 (protein, UniProt O76062 1-418, looked up)
Delta(14)-sterol reductase …: MAPTQGPRAPLEFGGPLGAAALLLLLPATMFHLLLAARSGPARLLGPPASLPGLEVLWSPRALLLWLAWLGLQAALYLLPARKVAEGQELKDKSRLRYPINGFQALVLTALLVGLGMSAGLPLGALPEMLLPLAFVATLTAFIFSLFLYMKAQVAPVSALAPGGNSGNPIYDFFLGRELNPRICFFDFKYFCELRPGLIGWVLINLALLMKEAELRGSPSLAMWLVNGFQLLYVGDALWHEEAVLTTMDITHDGFGFMLAFGDMAWVPFTYSLQAQFLLHHPQPLGLPMASVICLINATGYYIFRGANSQKNTFRKNPSDPRVAGLETISTATGRKLLVSGWWGMVRHPNYLGDLIMALAWSLPCGVSHLLPYFYLLYFTALLVHREARDERQCLQKYGLAWQEYCRRVPYRIMPYIY
B8: GOLT1B (protein, UniProt Q9Y3E0 1-138, looked up)
Vesicle transport protein …: MISLTDTQKIGMGLTGFGVFFLFFGMILFFDKALLAIGNVLFVAGLAFVIGLERTFRFFFQKHKMKATGFFLGGVFVVLIGWPLIGMIFEIYGFFLLFRGFFPVVVGFIRRVPVLGSLLNLPGIRSFVDKVGESNNMV

These molecules were tested on BAF complex subunits and histone proteins (assay: Mass spectrometry proteomics of purified HA-SS18 WT and HA-SS18-SSX1 complexes (Tables 5A-5E)). Conditions: HA-SS18SSX1_NE_peptides: protein co-purified with HA-SS18-SSX1 BAF complexes from soluble nuclear extract (NE), HEK-293T cells.
Design: species or system human

B1 and B2 are the same in “Total (peptides)” value: 2 for the first, 2 for the second.

Going from B3 to B4, the “Total (peptides)” value falls from 2 to 1.

B5 and B6 are the same in “Total (peptides)” value: 2 for the first, 2 for the second.

B7 and B8 are the same in “Total (peptides)” value: 2 for the first, 2 for the second.

Compared with B1, B2 is higher in “Unique (peptides)” value: 1 for the first, 2 for the second.

Compared with B3, B4 is lower in “Unique (peptides)” value: 2 for the first, 1 for the second.

Compared with B5, B6 is lower in “Unique (peptides)” value: 2 for the first, 1 for the second.

Going from B7 to B8, the “Unique (peptides)” value falls from 2 to 1.

Same assay, conditions: HA-SS18WT_NE_peptides: HA-SS18 WT complexes purified from nuclear extract (NE), HEK-293T; label = protein identified (Gene Symbol)

With B3 the “Total (peptides)” value was 4.

In the case of B3, the “Unique (peptides)” value is reported as 4.
